Binding data for one substance are collected here from paper PMC6884549, “Alkyladenine DNA glycosylase associates with transcription elongation to coordinate DNA repair with gene expression” (Nature Communications, 2019).

Sequences of proteins named here, by UniProt entry; tags and fusion partners are left off. A change or cut given only in a name is not applied to a line headed by its entry.
UniProt P29372: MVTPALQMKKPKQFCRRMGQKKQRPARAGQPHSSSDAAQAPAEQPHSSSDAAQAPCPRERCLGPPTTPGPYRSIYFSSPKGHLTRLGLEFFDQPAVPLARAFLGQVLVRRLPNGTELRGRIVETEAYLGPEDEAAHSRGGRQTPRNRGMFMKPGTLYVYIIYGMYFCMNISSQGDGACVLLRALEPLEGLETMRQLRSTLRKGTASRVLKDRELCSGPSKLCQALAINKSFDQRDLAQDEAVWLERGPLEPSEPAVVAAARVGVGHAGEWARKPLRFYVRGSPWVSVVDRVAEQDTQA

No constants are given. Whether binding was seen depends on the method and setting. Binding seen in cells or lysates may run through a third protein. Binding calls can cover weak binding; strength is not graded here.

In this assay the target is T1, ELP1 subunit of the Elongator complex, endogenous (human (endogenous in HEK293T)) (UniProt O95163).
T1 sequence: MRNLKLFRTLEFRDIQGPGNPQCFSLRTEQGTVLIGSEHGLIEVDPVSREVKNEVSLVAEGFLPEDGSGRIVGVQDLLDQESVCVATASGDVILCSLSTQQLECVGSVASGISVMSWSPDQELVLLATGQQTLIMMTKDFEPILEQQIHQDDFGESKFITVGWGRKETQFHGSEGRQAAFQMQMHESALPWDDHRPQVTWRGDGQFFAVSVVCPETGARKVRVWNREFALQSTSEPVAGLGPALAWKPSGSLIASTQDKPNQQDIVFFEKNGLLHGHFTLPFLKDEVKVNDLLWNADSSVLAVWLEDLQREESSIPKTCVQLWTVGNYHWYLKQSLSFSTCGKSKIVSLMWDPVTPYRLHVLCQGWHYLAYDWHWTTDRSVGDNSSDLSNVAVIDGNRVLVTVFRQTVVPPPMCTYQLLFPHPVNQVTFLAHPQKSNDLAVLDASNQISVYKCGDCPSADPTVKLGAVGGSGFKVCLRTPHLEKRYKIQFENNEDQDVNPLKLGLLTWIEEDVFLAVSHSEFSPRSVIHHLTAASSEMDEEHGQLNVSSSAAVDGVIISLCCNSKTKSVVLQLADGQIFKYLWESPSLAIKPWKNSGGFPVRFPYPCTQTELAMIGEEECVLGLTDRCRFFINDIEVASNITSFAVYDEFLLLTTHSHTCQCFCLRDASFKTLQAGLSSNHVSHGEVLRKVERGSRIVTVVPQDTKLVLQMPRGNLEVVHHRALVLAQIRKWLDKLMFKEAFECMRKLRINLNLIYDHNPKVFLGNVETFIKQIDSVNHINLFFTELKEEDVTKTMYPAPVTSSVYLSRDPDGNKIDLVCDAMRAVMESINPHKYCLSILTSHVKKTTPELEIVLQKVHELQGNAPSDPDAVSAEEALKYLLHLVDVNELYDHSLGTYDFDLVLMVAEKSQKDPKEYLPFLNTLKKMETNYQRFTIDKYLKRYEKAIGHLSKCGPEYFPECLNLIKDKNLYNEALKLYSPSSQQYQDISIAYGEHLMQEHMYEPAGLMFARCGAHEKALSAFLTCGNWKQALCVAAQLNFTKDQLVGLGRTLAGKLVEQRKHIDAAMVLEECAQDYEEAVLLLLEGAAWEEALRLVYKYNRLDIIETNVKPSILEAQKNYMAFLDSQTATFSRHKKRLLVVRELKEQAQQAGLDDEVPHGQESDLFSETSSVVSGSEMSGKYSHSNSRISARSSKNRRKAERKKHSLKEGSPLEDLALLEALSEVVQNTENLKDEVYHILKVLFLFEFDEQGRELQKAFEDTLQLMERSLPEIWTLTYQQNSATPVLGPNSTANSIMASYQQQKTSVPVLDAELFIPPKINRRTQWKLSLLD
Put plainly: co-IP; endogenous proteins; 0.5 mg HEK293T whole cell extract with 2 µg anti-AAG or anti-ELP1 antibody overnight at 4 °C, Protein-A Dynabeads, immunoblot; cells untreated or MMS treated; extracts with or without DNaseI, MNase, RNaseI; WT and ELP1-/- cells. Background: In western blotting, separated proteins are transferred to a membrane and probed.

As to “Alkyladenine DNA glycosylase (AAG), endogenous (from UniProt P29372)”, the binding entry was “binds”.
